# For at least one compound, name, drawing or mass did not settle the structure.
# Test system: HCT116 clones #102 and #202
# Assay: Xenograft tumor model, HCT116 clones conditionally expressing Chk2-DN
# Format: in vivo, mice
# Description: All examples involving animals were approved by an Institutional Animal Care and Use Committee. […] Approximately 2.5×10^6 cells were injected into each hindlimb flank of 6-8 week old female immunocompromised CB17 SCID/beige mice (i.e., thereby generating 2 tumors/mouse). […] Tumor growth was monitored with a caliper according to the formula ½ [length (mm)]×[width (mm)]^2. At the end of the experiment, tumors were excised, and frozen sections from the various groups were stained with control IgG or a FITC-conjugated antibody to HA, and analyzed by fluorescence microscopy.
smiles,measurement,setting,value
C[C@H]1c2cccc(O)c2C(=O)C2=C(O)[C@]3(O)C(=O)C(C(N)=O)=C(O)[C@@H](N(C)C)[C@@H]3[C@@H](O)[C@@H]21 [doxycycline],effect on tumor growth,"adriamycin-resistant clone #202, SCID/beige mice",unaffected
same,effect on tumor growth,"adriamycin-sensitive clone #102, SCID/beige mice",unaffected

# Reference: US20080125358A1, “Methods for Chk2 inhibitor patient selection” (UNIVERSITY OF MASSACHUSETTS MEDICAL SCHOOL, priority 2006, published 2008)
